# The other results are listed elsewhere or left out. Many values rest on one well or one pass, so single values are uncertain.
# Legend:
# [1] = system: MEPP (mouse ovarian epithelium Trp53/Pten KO); experiment: cell viability relative to untreated (fraction); higher = less growth inhibition; details: 5 µM; 3 days
# [2] = system: PREPP (mouse prostate epithelium Trp53/Pten KO); experiment: as above; details: 5 µM; 3 days
compound,measurement,setting,value
N[C@@H](Cc1c[nH]c2ccc(O)cc12)C(=O)O,cell viability,[1],0.968
same,cell viability,[2],0.726
O=c1ccn(C2OC(CO)C(O)C2O)c(=O)[nH]1 (centres undefined),cell viability,[1],0.902
same,cell viability,[2],1.09
COc1cc(CCC(C)=O)ccc1O,cell viability,[1],1.03
same,cell viability,[2],1.26
CCc1cc(C(N)=S)ccn1,cell viability,[1],1.08
same,cell viability,[2],0.869
Nc1ncnc2c1ncn2[C@@H]1O[C@H](CO)[C@@H](O)[C@H]1O,cell viability,[1],1.08
same,cell viability,[2],1.07
COc1cc(O)c(C(C)=O)c(OC)c1,cell viability,[1],0.747
same,cell viability,[2],1.13
Cc1ccc(C=O)o1,cell viability,[1],1.05
same,cell viability,[2],0.943
O=C(O)c1c[nH]c2ccccc12,cell viability,[1],0.919
same,cell viability,[2],1.03
O=C(/C=C/c1ccc(O[C@@H]2O[C@H](CO)[C@@H](O)[C@H](O)[C@H]2O)cc1)c1ccc(O)cc1O,cell viability,[1],1.13
same,cell viability,[2],0.889
O=c1c(O)c(-c2ccc(O)cc2)oc2cc(O)cc(O)c12,cell viability,[1],1.31
same,cell viability,[2],1
O=C[C@H](O)[C@@H](O)[C@H](O)CO,cell viability,[1],1.12
same,cell viability,[2],0.943
O=C(O)/C=C/c1ccc(O)c(O)c1,cell viability,[1],1.03
same,cell viability,[2],1.07
Nc1ncnc2c1c(I)cn2[C@@H]1O[C@H](CO)[C@@H](O)[C@H]1O,cell viability,[1],0.604
same,cell viability,[2],0.668
O=C(O)C1=CO[C@@H](O[C@@H]2O[C@H](CO)[C@@H](O)[C@H](O)[C@H]2O)[C@@H]2C(CO)=CC[C@H]12,cell viability,[1],1.1
same,cell viability,[2],0.946
O=C(O)c1cc2ccccc2oc1=O,cell viability,[1],1.03
same,cell viability,[2],0.966
O=C1/C(=C2\Nc3ccccc3C2=O)Nc2ccccc21,cell viability,[1],1.06
same,cell viability,[2],0.912
CCC(=O)OCC(=O)[C@@]1(OC(=O)CC)[C@@H](C)C[C@H]2[C@@H]3CCC4=CC(=O)C=C[C@]4(C)[C@@]3(F)[C@@H](O)C[C@@]21C,cell viability,[1],0.985
same,cell viability,[2],0.831

# Reprinted at random: three entries already listed, in no set order.
compound,measurement,setting,value
COc1cc(CCC(C)=O)ccc1O,cell viability,[1],1.03
COc1cc(O)c(C(C)=O)c(OC)c1,cell viability,[2],1.13
Nc1ncnc2c1c(I)cn2[C@@H]1O[C@H](CO)[C@@H](O)[C@H]1O,cell viability,[1],0.604
